Some of the results follow.
tested on: T1, CTL2-GFP (C. trachomatis L2/434/Bu, GFP-expressing); set-up: species or system HeLa; Intracellular C. trachomatis growth in HeLa cells, bulk GFP fluorescence relative to DMSO; settings: bulk GFP, single well; 28.5 h, 10 µM; inhibitor
T1 construct: L2/434/Bu, GFP-expressing

Row | Compound | % of control remaining
1 | CCOC(=O)c1cnn(C2CCCN(C(=O)c3cscc3C)C2)c1 (stereo not shown) [CBK305385] | 92.8961%
2 | O=C(CCCN1CCN(C(=O)NC2CCC(O)CC2)CC1)c1ccc(F)cc1 (stereo not shown) [CBK025156C] | 100%
3 | N#Cc1ccc(CNC(=O)c2ccc3[nH]ccc3c2)cc1 [CBK149078] | 111.96%
4 | COc1cccc(-c2n[nH]c3c2C(c2cccnc2)NC3=O)c1 (stereo not shown) [CBK288238] | 105.908%
5 | CCN(Cc1ccccc1)C(=O)Nc1ccccc1 [CBK012816] | 92.8387%
6 | CC(C)(C)OC(=O)N1CCC(c2nc3ccc(F)cc3cc2N)CC1 [CBK284658] | 70.7796%
7 | COCCOC(=O)N1CCC(N(C)Cc2ccc(-c3ccc(S(C)(=O)=O)cc3)nc2)CC1 [CBK165258T] | 116.923%
8 | O=C(c1ccco1)N1CCC(c2nnc3n2CCCCC3)CC1 [CBK284607] | 153.681%
9 | C[C@H](NC(=O)N1CCN(C(=O)c2c[nH]c3ccccc23)CC1)C(=O)O [CBK286581] | 111.744%
10 | Cc1cc2n(n1)[C@@H](C(F)F)C[C@@H](C1CCN(C(=O)C(C)C)CC1)N2 [CBK284725] | 124.452%
11 | O=S(=O)(Nc1nnn[nH]1)c1ccc(-c2cnco2)s1 [CBK062394] | 84.565%
12 | CCC(CO)Nc1cncc(-c2cc(C(C)C)ccc2OC)n1 (stereo not shown) [CBK065743] | 96.3056%
13 | Cc1c(C(=O)NC2CCN(c3ncccc3C#N)CC2)ccn1C [CBK307681] | 137.147%
14 | O=c1[nH]c2ncc(-c3cccc(CO)c3)nc2n1CC1CC1 [CBK065088] | 154.109%
15 | O=C(O)c1ccc(NC(=O)c2cccc(NC(=O)c3cccc4ccccc34)c2)cc1 [CBK299823] | 118.578%
16 | Nc1ncc(-c2occc2C=O)nc1NC1CCOCC1 [CBK063789] | 198.474%
17 | Cn1cc(N2CCC(NC(=O)c3ccc(C#N)cc3)C2=O)cn1 (stereo not shown) [CBK305182] | 146.171%
18 | COCCCn1c(C)c(C)n2c3c(=O)n(CCN4CCCCC4)c(=O)n(C)c3nc12 [CBK269762] | 127.743%
19 | O=C(O)[C@@H]1CCN(Cc2ccccc2)C[C@H]1c1ccccc1 [CBK286840] | 125.715%
20 | COc1cccc(COc2cncc(N3CCNCC3)n2)c1OC [CBK200003] | 51.6643%
21 | O=[N+]([O-])c1cc(-c2nc(-c3cccs3)c(-c3cccs3)[nH]2)ccc1Br [CBK265009] | 101.393%
22 | Cc1ccc(S(=O)(=O)NC2c3cccc4cccc(c34)C2Sc2nnc(N)[nH]2)cc1 (stereo not shown) [CBK265875] | 110.055%

Looked up above.
Value for `O=C(O)[C@@H]1CCN(Cc2ccccc2)C[C@H]1c1ccccc1` [CBK286840] under % of control remaining: 125.715%
Value for `C[C@H](NC(=O)N1CCN(C(=O)c2c[nH]c3ccccc23)CC1)C(=O)O` [CBK286581] under % of control remaining: 111.744%
